Experimental data: PubChem BioAssay AID652259 (Drosophila RNAi Screening Center, 2013)

Test: 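Genome-wide hunt for genes that control Wingless pathway activity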 (primary screen)
System: Drosophila clone 8 imaginal disc epithelial cells
Reagents: long dsRNA against Drosophila genes
Conditions: pathway stimulated by co-transfected Wingless expression plasmid
Detection: 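Dual luciferase reads per well after Wingless plasmid stimulation: reporter firefly light and Renilla control light; activity is firefly divided by Renilla, a ratio not deposited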
Direction: firefly reporter light: higher = more Wg reporter light, before normalisation; Renilla control light: higher = more transfected or surviving cells
Hit rule: 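Strong candidates differ from their plate mean by at least two out of four per-plate statistical tests; weak candidates meet just one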
Calls: active = candidate regulator (raises or lowers reporter); inactive = not a candidate
The deposit covers about 22,000 reagents; below is a random part of those that have a named target and a result. In the full data, 233 (1.1%) are marked active. 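Light values are raw, unnormalised plate reads; the ratio scores behind the reporter calls were not deposited.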 Reagent sequences are not shown. The record does not give: the amount of reagent, the time to read-out, the dose of the treatment.

gene knocked down,DRSC id,"firefly reporter light, replicate 1","firefly reporter light, replicate 2","Renilla control light, replicate 1","Renilla control light, replicate 2",outcome
mtg,DRSC16256,18373,,4864,,inactive
Vps13,DRSC06817,2022,6689,700,2066,inactive
CG5089,DRSC06914,12608,,3944,,inactive
Rgl,DRSC11267,6188,,2050,,inactive
Ance-5,DRSC04055,16790,,3434,,inactive
CG10347,DRSC19352,21020,,10897,,inactive
CG11400,DRSC06070,4356,,1764,,inactive
LRP1,DRSC07238,2075,6330,667,2503,inactive
CG5664,DRSC11782,3584,,1302,,inactive
CG10013,DRSC14175,5915,,2407,,inactive
lncRNA:CR43242,DRSC03827,3512,12935,914,3175,inactive
SdhB,DRSC05018,17508,7.74e5,5090,3.68e5,inactive
SdhB,DRSC21367,3.85e5,3.72e5,1.34e5,1.01e5,inactive
Brd8,DRSC14866,2887,7156,636,2608,inactive
Uxs,DRSC10941,4646,,2032,,inactive
CG32985,DRSC02634,2230,8505,563,2673,inactive
CG31808,DRSC22962,7.66e5,7.94e5,4.07e5,3.30e5,inactive
Polr3C,DRSC14490,5248,,2512,,inactive
Oga,DRSC15901,2562,5292,1133,1548,inactive
gcm,DRSC03536,2886,6203,1194,2832,inactive
Elk,DRSC07608,12533,,2162,,inactive
GstT4,DRSC19757,3733,5669,859,2416,inactive
CG7772,DRSC20056,3731,11414,1477,3576,inactive
CG10916,DRSC06012,15115,,4233,,inactive
GstD3,DRSC15571,8664,,3474,,inactive
Josd,DRSC18323,27883,,11240,,inactive
CG42714,DRSC08798,3482,,2288,,inactive
yem,DRSC14865,8508,,2759,,inactive
yem,DRSC17097,6384,,2290,,inactive

A run of entries of the results above, as a working copy:
gene knocked down,DRSC id,"firefly reporter light, replicate 1","firefly reporter light, replicate 2","Renilla control light, replicate 1","Renilla control light, replicate 2",outcome
CG42714,DRSC08798,3482,,2288,,inactive
yem,DRSC14865,8508,,2759,,inactive
